# Some of the results follow.
# The chains behind the UniProt entries cited, without tags or fusion partners. Where a name states a change or a piece, a line headed by the entry shows the natural chain unless it says otherwise.
# UniProt Q96CN7: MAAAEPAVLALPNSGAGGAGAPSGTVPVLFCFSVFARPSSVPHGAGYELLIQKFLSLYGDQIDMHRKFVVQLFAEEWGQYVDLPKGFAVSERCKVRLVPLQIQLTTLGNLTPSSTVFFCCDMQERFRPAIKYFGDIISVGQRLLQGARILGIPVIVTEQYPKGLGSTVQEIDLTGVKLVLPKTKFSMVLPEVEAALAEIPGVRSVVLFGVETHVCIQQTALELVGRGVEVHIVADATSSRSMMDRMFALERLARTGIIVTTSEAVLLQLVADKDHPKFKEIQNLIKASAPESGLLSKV
# UniProt Q9Y6M1: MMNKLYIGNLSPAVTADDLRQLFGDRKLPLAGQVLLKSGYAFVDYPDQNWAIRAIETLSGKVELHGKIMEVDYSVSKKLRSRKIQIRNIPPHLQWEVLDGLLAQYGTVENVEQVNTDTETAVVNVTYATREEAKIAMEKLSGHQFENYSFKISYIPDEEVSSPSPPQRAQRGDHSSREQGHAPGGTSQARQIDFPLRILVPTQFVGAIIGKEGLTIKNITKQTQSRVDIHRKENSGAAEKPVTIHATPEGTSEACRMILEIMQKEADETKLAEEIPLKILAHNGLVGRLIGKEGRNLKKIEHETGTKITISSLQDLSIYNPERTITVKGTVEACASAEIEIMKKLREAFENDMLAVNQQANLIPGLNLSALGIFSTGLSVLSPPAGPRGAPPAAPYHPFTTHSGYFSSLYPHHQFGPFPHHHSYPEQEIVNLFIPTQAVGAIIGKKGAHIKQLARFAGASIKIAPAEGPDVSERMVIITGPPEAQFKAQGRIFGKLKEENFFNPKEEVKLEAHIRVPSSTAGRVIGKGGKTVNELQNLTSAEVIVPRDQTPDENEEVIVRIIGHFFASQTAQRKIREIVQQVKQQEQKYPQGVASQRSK
# UniProt Q27J81, whole entry, looked up: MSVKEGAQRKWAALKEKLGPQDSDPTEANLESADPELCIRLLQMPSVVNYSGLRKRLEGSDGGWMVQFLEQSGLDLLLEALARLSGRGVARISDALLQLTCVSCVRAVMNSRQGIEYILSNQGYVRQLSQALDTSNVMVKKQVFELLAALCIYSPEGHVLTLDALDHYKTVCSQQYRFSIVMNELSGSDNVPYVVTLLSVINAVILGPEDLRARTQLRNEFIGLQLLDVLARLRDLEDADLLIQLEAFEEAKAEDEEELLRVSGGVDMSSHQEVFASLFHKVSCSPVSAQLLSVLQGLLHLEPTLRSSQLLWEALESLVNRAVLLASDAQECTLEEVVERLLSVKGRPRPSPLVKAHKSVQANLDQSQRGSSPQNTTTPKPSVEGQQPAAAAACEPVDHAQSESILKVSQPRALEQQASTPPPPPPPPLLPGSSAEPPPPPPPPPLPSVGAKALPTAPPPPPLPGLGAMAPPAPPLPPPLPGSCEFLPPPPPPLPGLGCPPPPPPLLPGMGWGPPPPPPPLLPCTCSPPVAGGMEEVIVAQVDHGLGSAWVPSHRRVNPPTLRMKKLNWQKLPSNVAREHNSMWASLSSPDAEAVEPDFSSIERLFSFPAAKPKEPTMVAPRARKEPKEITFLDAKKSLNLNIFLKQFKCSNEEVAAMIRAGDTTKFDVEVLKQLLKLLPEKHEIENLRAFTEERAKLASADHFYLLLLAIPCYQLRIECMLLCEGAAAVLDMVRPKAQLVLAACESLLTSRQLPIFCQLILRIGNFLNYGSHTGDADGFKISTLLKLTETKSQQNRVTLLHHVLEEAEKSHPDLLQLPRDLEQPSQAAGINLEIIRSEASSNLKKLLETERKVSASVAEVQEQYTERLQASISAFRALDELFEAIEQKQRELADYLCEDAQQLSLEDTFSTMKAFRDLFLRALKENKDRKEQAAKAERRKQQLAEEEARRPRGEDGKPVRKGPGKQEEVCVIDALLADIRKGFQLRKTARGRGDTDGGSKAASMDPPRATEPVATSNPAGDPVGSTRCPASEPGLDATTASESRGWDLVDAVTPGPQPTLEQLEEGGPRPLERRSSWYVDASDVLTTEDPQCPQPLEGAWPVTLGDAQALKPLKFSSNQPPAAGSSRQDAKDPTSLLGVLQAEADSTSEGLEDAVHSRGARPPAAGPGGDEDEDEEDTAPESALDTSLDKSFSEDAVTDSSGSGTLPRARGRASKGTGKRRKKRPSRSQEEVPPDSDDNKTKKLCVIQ
# UniProt P23677, whole entry, looked up: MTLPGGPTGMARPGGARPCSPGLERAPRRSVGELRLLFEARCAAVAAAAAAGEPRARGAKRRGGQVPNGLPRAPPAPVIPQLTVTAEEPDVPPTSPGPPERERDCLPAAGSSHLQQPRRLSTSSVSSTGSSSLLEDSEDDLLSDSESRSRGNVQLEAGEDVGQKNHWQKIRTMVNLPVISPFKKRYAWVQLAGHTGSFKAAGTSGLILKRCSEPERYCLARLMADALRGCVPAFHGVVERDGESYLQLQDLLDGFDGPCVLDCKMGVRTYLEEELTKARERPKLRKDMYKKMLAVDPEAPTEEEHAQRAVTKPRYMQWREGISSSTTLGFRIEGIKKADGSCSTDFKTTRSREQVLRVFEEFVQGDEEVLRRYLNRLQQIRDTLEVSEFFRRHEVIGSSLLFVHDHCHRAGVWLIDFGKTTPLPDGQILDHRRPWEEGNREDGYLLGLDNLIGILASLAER
# UniProt Q12906, whole entry, looked up: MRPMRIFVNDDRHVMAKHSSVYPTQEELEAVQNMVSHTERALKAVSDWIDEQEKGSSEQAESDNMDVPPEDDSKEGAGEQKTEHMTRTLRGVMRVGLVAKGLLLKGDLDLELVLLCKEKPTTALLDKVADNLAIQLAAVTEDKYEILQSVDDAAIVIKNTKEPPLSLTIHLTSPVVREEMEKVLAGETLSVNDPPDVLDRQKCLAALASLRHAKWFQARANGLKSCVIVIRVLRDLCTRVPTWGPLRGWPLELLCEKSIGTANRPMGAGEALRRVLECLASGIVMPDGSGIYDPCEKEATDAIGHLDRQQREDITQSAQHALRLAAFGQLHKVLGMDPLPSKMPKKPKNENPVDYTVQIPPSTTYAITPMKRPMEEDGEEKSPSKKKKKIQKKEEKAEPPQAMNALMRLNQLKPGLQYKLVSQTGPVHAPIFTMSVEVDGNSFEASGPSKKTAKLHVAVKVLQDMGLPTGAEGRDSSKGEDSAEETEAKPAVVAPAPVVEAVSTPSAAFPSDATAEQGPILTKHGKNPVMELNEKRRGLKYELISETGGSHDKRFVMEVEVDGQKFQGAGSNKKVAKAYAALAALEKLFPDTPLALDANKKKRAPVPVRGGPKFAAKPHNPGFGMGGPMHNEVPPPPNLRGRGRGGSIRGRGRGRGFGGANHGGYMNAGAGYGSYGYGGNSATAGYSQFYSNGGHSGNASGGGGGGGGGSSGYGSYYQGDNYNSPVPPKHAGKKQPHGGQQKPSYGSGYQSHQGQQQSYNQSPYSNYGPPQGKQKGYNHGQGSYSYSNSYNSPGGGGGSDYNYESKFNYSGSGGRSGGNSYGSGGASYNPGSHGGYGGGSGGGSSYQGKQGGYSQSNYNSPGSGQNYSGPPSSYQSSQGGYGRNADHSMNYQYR
# UniProt O00410: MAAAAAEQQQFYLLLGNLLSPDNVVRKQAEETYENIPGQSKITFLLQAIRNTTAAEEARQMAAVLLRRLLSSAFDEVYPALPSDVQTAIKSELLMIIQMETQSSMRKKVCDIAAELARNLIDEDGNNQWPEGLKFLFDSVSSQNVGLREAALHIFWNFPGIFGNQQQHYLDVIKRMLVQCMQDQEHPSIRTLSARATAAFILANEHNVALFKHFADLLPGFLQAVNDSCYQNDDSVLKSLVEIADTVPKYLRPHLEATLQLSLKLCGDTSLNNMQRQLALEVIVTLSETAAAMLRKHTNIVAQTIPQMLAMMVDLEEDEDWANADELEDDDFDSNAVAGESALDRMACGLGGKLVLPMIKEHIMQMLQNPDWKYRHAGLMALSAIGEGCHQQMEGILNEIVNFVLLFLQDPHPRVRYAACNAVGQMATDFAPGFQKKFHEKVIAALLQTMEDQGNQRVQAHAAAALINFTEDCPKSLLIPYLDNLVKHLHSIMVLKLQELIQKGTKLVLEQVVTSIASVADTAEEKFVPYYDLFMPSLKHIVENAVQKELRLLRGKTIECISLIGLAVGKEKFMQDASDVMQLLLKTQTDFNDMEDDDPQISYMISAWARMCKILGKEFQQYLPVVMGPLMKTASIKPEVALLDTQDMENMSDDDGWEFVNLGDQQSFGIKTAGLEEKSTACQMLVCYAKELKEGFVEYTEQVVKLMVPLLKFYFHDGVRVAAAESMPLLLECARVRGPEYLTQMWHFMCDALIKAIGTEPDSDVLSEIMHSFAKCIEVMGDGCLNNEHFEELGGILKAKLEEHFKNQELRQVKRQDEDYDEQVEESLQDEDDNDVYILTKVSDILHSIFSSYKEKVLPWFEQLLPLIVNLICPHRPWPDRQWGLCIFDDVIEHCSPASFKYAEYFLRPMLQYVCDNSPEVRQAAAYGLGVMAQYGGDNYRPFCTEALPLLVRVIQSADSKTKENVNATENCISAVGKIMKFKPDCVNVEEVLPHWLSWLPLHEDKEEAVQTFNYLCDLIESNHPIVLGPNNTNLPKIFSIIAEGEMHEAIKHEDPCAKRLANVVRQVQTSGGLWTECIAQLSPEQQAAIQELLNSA
# UniProt Q6UWB1, whole entry, looked up: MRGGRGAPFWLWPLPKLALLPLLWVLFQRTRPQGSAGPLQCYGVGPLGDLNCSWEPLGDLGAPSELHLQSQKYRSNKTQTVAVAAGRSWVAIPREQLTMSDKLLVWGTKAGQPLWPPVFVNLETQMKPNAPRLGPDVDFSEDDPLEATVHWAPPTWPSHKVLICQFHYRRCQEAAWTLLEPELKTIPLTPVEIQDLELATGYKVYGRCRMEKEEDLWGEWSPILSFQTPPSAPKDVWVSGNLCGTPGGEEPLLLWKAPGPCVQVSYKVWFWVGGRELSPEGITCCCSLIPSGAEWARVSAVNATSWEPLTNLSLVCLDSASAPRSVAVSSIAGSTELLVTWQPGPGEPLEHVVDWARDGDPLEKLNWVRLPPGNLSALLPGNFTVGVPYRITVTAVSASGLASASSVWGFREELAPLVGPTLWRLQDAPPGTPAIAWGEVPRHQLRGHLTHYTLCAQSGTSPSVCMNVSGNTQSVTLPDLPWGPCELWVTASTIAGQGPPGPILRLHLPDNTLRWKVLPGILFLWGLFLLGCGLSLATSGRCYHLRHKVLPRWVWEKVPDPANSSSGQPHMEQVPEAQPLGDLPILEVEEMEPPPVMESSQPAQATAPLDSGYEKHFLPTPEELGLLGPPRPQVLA
# UniProt P15260: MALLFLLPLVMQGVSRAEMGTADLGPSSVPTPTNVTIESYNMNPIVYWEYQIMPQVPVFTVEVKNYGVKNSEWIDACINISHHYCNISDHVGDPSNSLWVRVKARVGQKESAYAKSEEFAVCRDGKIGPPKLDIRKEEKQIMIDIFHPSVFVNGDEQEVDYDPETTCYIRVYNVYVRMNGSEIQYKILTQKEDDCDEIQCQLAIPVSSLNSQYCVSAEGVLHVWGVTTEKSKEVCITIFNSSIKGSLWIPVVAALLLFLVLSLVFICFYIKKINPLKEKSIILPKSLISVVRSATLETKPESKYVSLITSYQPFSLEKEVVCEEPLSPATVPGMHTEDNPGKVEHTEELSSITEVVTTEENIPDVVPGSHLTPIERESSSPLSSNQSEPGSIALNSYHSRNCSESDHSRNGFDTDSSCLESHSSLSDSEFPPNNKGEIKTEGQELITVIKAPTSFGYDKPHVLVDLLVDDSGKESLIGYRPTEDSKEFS
# UniProt Q9H1B7, whole entry, looked up: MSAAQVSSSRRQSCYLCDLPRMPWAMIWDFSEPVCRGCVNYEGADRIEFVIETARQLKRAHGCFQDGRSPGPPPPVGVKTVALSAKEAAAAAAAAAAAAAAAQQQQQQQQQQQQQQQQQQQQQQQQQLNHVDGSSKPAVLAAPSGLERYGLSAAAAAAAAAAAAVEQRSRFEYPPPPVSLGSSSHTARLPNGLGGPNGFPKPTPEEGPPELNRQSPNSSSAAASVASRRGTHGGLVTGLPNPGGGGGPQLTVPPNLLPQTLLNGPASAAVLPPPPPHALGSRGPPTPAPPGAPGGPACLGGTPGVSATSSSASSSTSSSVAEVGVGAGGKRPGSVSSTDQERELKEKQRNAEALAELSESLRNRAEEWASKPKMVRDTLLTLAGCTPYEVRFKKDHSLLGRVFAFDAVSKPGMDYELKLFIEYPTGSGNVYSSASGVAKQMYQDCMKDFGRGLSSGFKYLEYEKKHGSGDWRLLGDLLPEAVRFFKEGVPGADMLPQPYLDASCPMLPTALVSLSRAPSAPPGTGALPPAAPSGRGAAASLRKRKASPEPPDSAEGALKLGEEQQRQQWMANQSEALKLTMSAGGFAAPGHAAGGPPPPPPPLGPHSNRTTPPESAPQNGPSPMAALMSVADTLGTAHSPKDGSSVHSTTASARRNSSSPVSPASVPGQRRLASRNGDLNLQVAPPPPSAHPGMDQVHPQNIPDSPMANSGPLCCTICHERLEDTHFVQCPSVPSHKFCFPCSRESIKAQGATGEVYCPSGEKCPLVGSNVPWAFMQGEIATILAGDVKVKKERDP
# How the values were obtained:
# Experiment in all cases: log2 fold change, soluble protein after heating vs DMSO (PISA); higher = thermal stabilisation; K562 cells, 10 uM, 30 min; active = over 0.2 and 3.5 SD of the protein, either way, in both replicates (recomputed)
# [1] = compound: CN1CCN(CCOc2cc(OC3CCOCC3)c3c(Nc4c(Cl)ccc5c4OCO5)ncnc3c2)CC1 [saracatinib]
# Procedure, shortened: (§1)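 Values are thermal stability changes relative to control samples and are taken from duplicates. They are stated as log2 fold changes. Before quantification by TMTpro 16plex LC-MS/MS with equalised channel sums, K562 cells at 2×10^6 cells/mL were treated with 10 μM compound for 30 min, heated in aliquots for 3 min across 48°C-58°C, pooled, extracted in PBS with 0.5% NP-40 at 4°C, and centrifuged at 21,000xg for 90 min to give the soluble supernatant.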
# [2] = compound: CN1CCN(c2nc(C3=C(c4c[nH]c5ccccc45)C(=O)NC3=O)c3ccccc3n2)CC1 [sotrastaurin]
# Procedure, shortened: as §1
# [3] = compound: CN1CCc2c(c3ccccc3n2Cc2ccc(C(=O)NO)cc2)C1 [Tubastatin A]
# Procedure, shortened: as §1
# [4] = compound: CNC(=O)C1=CC=CC=C1NC2=NC(=NC=C2Cl)NC3=C(C=C(C=C3)N4CCOCC4)OC
# Procedure, shortened: as §1
# [5] = compound: CNC(=O)c1ccc(Nc2ncc(C(F)(F)F)c(NCc3nccnc3N(C)S(C)(=O)=O)n2)cc1 [defactinib]
# Procedure, shortened: as §1
# [6] = compound: CNCc1ccc(-c2[nH]c3cc(F)cc4c3c2CCNC4=O)cc1 [rucaparib]
# Procedure, shortened: as §1
# [7] = compound: CNc1nc(-c2ccc3c(N)n[nH]c3c2)cc(N2C[C@@H](C(=O)NC3CCCCC3)CC[C@H]2C)n1
# Procedure, shortened: as §1
# [8] = compound: COC(=O)N[C@@H](C)CNc1nccc(-c2cn(C(C)C)nc2-c2cc(Cl)cc(NS(C)(=O)=O)c2F)n1 [encorafenib]
# Procedure, shortened: as §1
# [9] = compound: COC(=O)[C@H](CCSC)NC(=O)C1=C(C=C(C=C1)NC[C@H](CS)N)C2=CC=CC=C2
# Procedure, shortened: as §1
# [10] = compound: CN1CC[C@H](c2c(O)cc(O)c3c(=O)cc(-c4ccccc4Cl)oc23)[C@H](O)C1 [alvocidib]
# Procedure, shortened: as §1
Target,log2 fold change [1],log2 fold change [2],log2 fold change [3],log2 fold change [4],log2 fold change [5],log2 fold change [6],log2 fold change [7],log2 fold change [8],log2 fold change [9],log2 fold change [10]
ITPRIP (UniProt Q8IWB1),inactive: -0.028,inactive: 0.016,inactive: 0.034,inactive: 0.011,inactive: -0.037,inactive: 0.034,inactive: -0.084,inactive: -0.009,inactive: 0.013,
IKZF4 (UniProt Q9H2S9),inactive: -0.009,inactive: -0.157,,inactive: -0.119,inactive: -0.271,,inactive: -0.159,,inactive: 0.049,inactive: -0.136
IRF2BP1 (UniProt Q8IU81),inactive: -0.071,inactive: -0.118,inactive: 0.012,inactive: 0.084,,inactive: -0.013,inactive: -0.062,inactive: 0.08,,inactive: 0.141
IMMP2L (UniProt Q96T52),inactive: 0.003,inactive: 0.021,inactive: -0.052,inactive: 0.023,inactive: -0.1,inactive: -0.007,inactive: -0.034,inactive: 0.082,inactive: -0.04,inactive: 0.012
ITIH3 (UniProt Q06033),inactive: 0.276,inactive: 0.325,inactive: -0.119,inactive: 0.054,inactive: -0.01,inactive: -0.167,inactive: 0.058,inactive: -0.042,inactive: 0.171,inactive: 0.093
IPO11 isoform 2 (UniProt Q9UI26),inactive: 0.048,inactive: -0.02,inactive: -0.043,inactive: 0.01,inactive: -0.013,inactive: -0.053,inactive: -0.03,inactive: -0.004,inactive: 0.012,
ISOC1 (UniProt Q96CN7),inactive: 0.027,inactive: 0.052,inactive: -0.003,inactive: -0.025,inactive: -0.013,inactive: -0.054,inactive: -0.016,inactive: -0.048,inactive: 0.026,inactive: 0.024
IGF2BP2 (UniProt Q9Y6M1),inactive: -0.122,inactive: -0.035,inactive: 0.168,inactive: 0.044,inactive: 0.147,inactive: 0.446,inactive: 0.145,inactive: 0.106,inactive: -0.066,
INF2 (UniProt Q27J81),inactive: -0.127,inactive: -0.124,,,,,inactive: -0.057,,,inactive: 0.095
ITPKA (UniProt P23677),inactive: -0.093,inactive: -0.024,inactive: 0.081,inactive: -0.534,inactive: -0.027,inactive: 0.196,inactive: 0.012,inactive: -0.066,inactive: -0.161,
INPP4A (UniProt Q96PE3),inactive: 0.02,inactive: -0.002,inactive: -0.004,inactive: 0.02,inactive: -0.16,inactive: -0.042,inactive: -0.086,inactive: 0.011,inactive: 0.001,inactive: -0.083
IGF2R (UniProt P11717),inactive: -0.015,inactive: 0.004,inactive: -0.004,inactive: 0.061,inactive: -0.01,inactive: -0.027,inactive: -0.008,inactive: 0.045,inactive: 0.005,
IFNAR1 (UniProt P17181),inactive: 0.134,inactive: 0.065,inactive: 0.007,,inactive: -0.042,,inactive: 0.033,,inactive: 0.001,inactive: 0.146
IDH3A (UniProt P50213),inactive: -0.004,inactive: 0.008,inactive: -0.058,inactive: -0.026,inactive: -0.023,inactive: -0.031,inactive: -0.026,inactive: -0.01,inactive: 0.002,
ILKAP (UniProt Q9H0C8),inactive: -0.057,inactive: -0.087,inactive: 0.055,inactive: -0.021,inactive: -0.155,inactive: 0.011,inactive: 0.055,inactive: 0.061,inactive: -0.078,
IST1 isoform 5 (UniProt P53990),inactive: -0.028,inactive: -0.071,inactive: -0.002,inactive: -0.01,inactive: -0.026,inactive: -0.029,inactive: 0,inactive: 0.04,inactive: -0.039,inactive: -0.094

# Given tab-delimited: part of the list above
Target	log2 fold change [1]	log2 fold change [2]	log2 fold change [3]	log2 fold change [4]	log2 fold change [5]	log2 fold change [6]	log2 fold change [7]	log2 fold change [8]	log2 fold change [9]	log2 fold change [10]
IMMP2L (UniProt Q96T52)	inactive: 0.003	inactive: 0.021	inactive: -0.052	inactive: 0.023	inactive: -0.1	inactive: -0.007	inactive: -0.034	inactive: 0.082	inactive: -0.04	inactive: 0.012
ILKAP (UniProt Q9H0C8)	inactive: -0.057	inactive: -0.087	inactive: 0.055	inactive: -0.021	inactive: -0.155	inactive: 0.011	inactive: 0.055	inactive: 0.061	inactive: -0.078	

# Next part:

Target,log2 fold change [1],log2 fold change [2],log2 fold change [3],log2 fold change [4],log2 fold change [5],log2 fold change [6],log2 fold change [7],log2 fold change [8],log2 fold change [9],log2 fold change [10]
ILF3 isoform 7 (UniProt Q12906),inactive: 0.001,inactive: 0.087,inactive: -0.044,inactive: 0.03,active: 0.554,inactive: 0.202,inactive: -0.003,inactive: 0.032,inactive: 0,
ITM2A (UniProt O43736),inactive: -0.014,inactive: 0.095,inactive: 0.097,inactive: 0.036,inactive: 0.008,inactive: 0.089,inactive: 0.093,inactive: 0.169,inactive: -0.02,inactive: 0.086
INTS8 (UniProt Q75QN2),inactive: -0.01,inactive: 0.012,inactive: 0.097,inactive: 0.039,inactive: -0.114,inactive: -0.198,inactive: -0.005,inactive: -0.049,inactive: 0.014,inactive: 0
IK (UniProt Q13123),inactive: -0.006,inactive: -0.037,inactive: 0.05,inactive: -0.036,inactive: 0.013,inactive: 0.198,inactive: -0.059,inactive: 0.197,inactive: 0.002,
ITCH (UniProt Q96J02),inactive: 0.008,inactive: -0.045,inactive: -0.026,inactive: 0.034,inactive: 0,inactive: 0.232,inactive: -0.061,inactive: 0.11,inactive: 0.13,inactive: -0.087
ISCU (UniProt Q9H1K1),inactive: 0.003,inactive: 0.085,inactive: -0.068,inactive: 0.008,inactive: 0.012,inactive: -0.095,inactive: -0.04,inactive: -0.015,inactive: 0.025,inactive: 0.018
IMPDH1 isoform 6 (UniProt P20839),inactive: -0.059,inactive: 0.008,inactive: 0.055,inactive: -0.032,inactive: 0.088,inactive: 0.062,inactive: 0.022,inactive: 0.032,inactive: -0.032,inactive: 0.047
IPO5 isoform 3 (UniProt O00410),inactive: 0.043,inactive: -0.107,inactive: -0.102,inactive: 0,inactive: -0.036,inactive: -0.114,inactive: -0.015,inactive: 0.037,inactive: -0.01,inactive: -0.098
IMMT isoform 2 (UniProt Q16891),inactive: -0.069,inactive: -0.036,inactive: -0.076,inactive: 0.131,inactive: 0.029,inactive: 0.023,inactive: -0.111,inactive: 0.017,inactive: 0.067,
IGFBP3 isoform 2 (UniProt P17936),inactive: -0.092,inactive: 0.245,inactive: 0.001,,inactive: 0.17,,inactive: -0.08,,inactive: 0.045,
IL27RA (UniProt Q6UWB1),inactive: 0.062,inactive: 0.014,inactive: 0.063,inactive: 0.056,inactive: -0.097,inactive: -0.03,inactive: 0.065,inactive: -0.023,inactive: 0,
IFNGR1 (UniProt P15260),inactive: 0.05,inactive: -0.038,inactive: 0.11,inactive: -0.215,inactive: 0.051,inactive: 0.056,inactive: -0.009,inactive: -0.026,inactive: 0.088,
IL1RAP isoform 5 (UniProt Q9NPH3),inactive: -0.108,,inactive: -0.075,,inactive: -0.092,inactive: -0.186,inactive: -0.051,inactive: 0.139,inactive: -0.253,inactive: 0.144
IRAK4 (UniProt Q9NWZ3),inactive: -0.026,inactive: -0.061,inactive: 0.006,inactive: 0.162,inactive: -0.022,inactive: 0.076,inactive: 0.01,inactive: 0.006,inactive: -0.071,
IRF2BPL (UniProt Q9H1B7),inactive: 0.003,inactive: -0.044,inactive: 0.053,inactive: 0.032,inactive: -0.038,inactive: 0.015,inactive: -0.045,inactive: -0.06,inactive: -0.027,

# From the supplement of paper PMC10849652
